Earlier results on 1 compound are cited in PMC3849647, “Pharmacokinetics and biodistribution of the cyclin-dependent kinase inhibitor -CR8- in mice” (BMC Pharmacology & Toxicology, 2013).

Where two headings read alike, the source gives them in different places.

One series relates to tumor cell lines. To be noted: cited from earlier work.
For series [1] the following is noted: brain vs plasma, reported, no reference given; cited from earlier work.

For `CC[C@H](CO)Nc1nc(NCc2ccccc2)c2ncn(C(C)C)c2n1` [roscovitine], the IC50 is 14.6 µM with tumor cell lines (different cell lines, read-out: Optimal concentration for pharmacological effect in-vitro in different cell lines) and 15 to 17 µM in the series on tumor cell lines (read-out: Reported anti-tumor IC50). The “Brain exposure relative to plasma (passage of BBB)” value in series [1] is recorded as 30%.
